Experimental data: the supplement of paper PMC10849652
This is one part of the list.

By UniProt entry, the sequences of proteins in these tests, tags left out. Where a name states a change or a piece, a line headed by the entry shows the natural chain unless it says otherwise.
UniProt P22570: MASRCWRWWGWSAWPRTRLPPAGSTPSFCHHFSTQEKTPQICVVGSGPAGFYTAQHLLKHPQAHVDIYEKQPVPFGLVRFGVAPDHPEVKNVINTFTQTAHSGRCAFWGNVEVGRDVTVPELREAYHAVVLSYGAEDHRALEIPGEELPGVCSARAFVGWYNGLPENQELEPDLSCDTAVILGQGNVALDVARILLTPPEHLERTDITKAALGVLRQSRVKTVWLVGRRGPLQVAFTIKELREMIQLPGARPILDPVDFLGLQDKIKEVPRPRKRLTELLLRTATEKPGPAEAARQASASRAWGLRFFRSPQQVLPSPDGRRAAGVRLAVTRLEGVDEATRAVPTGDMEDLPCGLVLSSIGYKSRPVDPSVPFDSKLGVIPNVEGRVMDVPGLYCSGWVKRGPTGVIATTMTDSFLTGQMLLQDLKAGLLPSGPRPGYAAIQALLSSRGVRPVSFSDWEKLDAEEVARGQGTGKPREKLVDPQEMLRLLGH
UniProt P35916, whole entry, looked up: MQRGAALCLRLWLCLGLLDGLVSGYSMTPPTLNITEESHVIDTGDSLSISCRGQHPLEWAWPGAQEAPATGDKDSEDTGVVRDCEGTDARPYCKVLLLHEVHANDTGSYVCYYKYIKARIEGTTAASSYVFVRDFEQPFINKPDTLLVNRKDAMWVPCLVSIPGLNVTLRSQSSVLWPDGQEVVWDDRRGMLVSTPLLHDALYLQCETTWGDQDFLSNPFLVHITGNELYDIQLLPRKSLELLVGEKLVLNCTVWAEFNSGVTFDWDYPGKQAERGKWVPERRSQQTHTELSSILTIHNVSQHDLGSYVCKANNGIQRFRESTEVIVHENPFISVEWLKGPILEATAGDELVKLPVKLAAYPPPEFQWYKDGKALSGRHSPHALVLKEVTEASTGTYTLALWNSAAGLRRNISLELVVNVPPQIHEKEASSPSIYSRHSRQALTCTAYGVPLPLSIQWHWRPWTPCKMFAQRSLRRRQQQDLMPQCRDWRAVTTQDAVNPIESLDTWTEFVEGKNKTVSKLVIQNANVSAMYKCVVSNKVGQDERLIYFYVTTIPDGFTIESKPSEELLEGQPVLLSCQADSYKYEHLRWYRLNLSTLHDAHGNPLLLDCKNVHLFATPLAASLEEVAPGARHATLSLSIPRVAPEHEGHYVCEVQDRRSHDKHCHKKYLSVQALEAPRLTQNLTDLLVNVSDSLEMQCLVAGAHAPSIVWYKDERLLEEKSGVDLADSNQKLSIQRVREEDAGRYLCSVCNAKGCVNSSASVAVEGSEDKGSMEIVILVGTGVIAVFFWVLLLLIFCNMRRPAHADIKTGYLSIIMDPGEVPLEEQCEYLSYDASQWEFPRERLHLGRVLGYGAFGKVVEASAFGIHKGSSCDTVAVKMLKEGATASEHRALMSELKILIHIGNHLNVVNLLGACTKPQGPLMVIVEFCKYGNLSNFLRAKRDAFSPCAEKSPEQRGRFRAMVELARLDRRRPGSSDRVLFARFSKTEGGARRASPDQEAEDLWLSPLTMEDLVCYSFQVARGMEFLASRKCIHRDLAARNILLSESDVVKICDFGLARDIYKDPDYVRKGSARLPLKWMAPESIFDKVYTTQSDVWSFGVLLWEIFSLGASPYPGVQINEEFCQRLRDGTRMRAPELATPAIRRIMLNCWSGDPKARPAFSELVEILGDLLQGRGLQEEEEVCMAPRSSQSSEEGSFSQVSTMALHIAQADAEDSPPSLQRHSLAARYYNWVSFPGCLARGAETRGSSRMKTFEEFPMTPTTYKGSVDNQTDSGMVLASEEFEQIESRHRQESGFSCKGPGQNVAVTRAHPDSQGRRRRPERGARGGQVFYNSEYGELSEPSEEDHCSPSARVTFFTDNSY
UniProt Q9NXK8: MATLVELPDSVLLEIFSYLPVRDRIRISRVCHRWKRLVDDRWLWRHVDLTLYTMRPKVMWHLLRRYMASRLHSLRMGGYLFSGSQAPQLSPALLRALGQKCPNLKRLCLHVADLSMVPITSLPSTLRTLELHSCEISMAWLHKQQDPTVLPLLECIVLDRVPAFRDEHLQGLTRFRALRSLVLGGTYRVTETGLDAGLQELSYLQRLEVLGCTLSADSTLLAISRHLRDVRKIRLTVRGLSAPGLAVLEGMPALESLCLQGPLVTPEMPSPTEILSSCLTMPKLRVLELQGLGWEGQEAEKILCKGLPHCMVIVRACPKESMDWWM
UniProt Q8TB52: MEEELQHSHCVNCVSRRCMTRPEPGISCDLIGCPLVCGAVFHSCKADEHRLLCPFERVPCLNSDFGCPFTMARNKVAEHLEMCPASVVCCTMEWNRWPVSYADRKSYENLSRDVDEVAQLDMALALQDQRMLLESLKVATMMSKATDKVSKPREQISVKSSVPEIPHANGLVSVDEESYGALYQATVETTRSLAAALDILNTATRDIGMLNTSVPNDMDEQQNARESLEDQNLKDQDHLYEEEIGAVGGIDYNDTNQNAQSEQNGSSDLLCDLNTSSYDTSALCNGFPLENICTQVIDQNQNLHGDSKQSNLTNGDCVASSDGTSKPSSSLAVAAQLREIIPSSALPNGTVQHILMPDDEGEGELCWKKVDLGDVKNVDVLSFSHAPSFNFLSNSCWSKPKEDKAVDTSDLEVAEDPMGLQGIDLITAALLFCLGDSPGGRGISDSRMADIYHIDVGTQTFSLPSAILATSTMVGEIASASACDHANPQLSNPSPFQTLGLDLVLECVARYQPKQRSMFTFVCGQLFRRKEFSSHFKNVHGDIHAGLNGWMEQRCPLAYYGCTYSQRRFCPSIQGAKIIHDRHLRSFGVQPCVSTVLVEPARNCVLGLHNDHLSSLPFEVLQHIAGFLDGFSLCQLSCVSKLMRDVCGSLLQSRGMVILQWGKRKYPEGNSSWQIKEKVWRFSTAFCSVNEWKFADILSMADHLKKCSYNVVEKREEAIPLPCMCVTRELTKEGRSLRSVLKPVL
UniProt Q9Y3I1: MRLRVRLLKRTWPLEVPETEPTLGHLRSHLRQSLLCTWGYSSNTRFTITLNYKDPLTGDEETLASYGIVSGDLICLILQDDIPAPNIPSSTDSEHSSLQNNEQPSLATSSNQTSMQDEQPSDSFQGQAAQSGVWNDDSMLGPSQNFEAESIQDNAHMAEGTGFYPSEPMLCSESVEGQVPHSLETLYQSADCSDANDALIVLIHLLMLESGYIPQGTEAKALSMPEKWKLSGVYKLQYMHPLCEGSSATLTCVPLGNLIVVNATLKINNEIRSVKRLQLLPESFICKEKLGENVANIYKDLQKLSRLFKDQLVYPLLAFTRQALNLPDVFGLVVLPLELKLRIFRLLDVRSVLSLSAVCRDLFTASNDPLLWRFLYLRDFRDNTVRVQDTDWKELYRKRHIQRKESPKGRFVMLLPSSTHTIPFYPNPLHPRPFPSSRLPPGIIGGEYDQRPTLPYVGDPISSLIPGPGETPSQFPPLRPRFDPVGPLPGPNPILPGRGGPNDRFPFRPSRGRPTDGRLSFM
UniProt Q5HYJ3: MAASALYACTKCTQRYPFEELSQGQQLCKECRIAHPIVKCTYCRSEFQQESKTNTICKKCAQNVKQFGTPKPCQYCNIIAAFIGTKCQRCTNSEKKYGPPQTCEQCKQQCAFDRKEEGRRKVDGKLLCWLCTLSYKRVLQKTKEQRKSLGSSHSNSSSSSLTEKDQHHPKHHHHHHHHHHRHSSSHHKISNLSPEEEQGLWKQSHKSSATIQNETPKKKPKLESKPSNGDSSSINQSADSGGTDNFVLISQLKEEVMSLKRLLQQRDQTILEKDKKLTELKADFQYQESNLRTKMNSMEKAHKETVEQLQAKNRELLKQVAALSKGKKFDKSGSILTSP
UniProt P98173: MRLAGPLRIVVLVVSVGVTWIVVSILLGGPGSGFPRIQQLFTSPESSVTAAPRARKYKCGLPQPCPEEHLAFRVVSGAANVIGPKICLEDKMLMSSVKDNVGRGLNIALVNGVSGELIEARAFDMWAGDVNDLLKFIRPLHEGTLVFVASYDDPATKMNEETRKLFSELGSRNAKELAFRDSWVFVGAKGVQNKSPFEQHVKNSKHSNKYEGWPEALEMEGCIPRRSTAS
UniProt Q9NYY8: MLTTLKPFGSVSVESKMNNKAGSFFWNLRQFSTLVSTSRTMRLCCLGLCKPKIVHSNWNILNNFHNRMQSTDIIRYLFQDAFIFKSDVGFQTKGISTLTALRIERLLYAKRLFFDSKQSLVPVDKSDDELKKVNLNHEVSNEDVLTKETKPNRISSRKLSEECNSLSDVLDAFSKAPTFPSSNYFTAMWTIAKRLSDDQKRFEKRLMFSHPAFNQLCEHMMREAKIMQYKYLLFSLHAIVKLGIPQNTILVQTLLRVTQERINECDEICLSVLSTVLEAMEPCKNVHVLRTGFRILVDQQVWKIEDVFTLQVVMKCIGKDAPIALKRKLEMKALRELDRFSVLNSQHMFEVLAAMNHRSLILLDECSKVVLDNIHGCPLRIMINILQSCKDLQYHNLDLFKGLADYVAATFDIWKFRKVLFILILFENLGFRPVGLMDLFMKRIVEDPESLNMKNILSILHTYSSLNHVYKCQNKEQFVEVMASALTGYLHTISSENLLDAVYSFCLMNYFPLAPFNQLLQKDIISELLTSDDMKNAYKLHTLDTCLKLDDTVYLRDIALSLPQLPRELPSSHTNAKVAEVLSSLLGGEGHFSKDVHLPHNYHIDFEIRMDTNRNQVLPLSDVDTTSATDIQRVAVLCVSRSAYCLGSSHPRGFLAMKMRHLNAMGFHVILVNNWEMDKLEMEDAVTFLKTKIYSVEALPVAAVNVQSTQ
UniProt Q92913: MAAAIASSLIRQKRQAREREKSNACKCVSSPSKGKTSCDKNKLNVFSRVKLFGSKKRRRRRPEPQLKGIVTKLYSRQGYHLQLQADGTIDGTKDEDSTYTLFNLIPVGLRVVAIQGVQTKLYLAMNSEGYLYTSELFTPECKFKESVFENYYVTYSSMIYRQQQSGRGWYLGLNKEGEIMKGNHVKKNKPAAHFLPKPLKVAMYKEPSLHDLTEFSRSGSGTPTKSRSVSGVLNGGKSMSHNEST
UniProt Q9NRD1: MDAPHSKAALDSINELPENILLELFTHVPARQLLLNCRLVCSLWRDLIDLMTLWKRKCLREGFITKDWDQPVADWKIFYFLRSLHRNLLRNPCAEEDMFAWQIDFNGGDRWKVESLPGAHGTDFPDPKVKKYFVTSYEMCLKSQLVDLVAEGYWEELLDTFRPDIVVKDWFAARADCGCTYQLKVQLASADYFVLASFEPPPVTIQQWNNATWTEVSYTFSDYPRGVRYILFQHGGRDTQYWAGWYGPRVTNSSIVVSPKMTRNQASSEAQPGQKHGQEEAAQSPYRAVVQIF
UniProt Q8N3X1: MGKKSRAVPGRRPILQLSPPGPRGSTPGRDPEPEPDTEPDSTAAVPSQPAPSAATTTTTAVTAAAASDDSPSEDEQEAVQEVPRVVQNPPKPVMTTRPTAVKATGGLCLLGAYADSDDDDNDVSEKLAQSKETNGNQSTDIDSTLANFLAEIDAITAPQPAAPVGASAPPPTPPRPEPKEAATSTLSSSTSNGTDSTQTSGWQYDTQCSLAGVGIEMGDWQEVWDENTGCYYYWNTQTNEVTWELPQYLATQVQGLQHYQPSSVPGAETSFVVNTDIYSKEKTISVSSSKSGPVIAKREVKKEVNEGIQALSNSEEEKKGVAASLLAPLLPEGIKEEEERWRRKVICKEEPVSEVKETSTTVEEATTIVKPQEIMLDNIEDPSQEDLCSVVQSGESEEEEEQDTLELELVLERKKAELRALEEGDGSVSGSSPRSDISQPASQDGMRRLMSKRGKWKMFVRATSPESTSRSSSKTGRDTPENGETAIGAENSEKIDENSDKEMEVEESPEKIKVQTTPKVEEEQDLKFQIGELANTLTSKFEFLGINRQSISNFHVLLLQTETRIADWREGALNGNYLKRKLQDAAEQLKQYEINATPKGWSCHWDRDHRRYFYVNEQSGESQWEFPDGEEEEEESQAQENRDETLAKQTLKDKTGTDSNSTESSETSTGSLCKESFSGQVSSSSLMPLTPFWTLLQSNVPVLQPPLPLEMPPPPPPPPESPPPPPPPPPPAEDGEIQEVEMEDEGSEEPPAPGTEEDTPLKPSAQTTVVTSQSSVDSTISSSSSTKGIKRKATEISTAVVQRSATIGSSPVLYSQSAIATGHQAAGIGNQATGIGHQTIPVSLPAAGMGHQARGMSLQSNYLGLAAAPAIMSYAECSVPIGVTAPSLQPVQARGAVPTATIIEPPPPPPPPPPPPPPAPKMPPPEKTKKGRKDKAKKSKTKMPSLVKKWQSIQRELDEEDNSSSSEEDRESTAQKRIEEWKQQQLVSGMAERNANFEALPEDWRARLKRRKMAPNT
UniProt Q96ND0: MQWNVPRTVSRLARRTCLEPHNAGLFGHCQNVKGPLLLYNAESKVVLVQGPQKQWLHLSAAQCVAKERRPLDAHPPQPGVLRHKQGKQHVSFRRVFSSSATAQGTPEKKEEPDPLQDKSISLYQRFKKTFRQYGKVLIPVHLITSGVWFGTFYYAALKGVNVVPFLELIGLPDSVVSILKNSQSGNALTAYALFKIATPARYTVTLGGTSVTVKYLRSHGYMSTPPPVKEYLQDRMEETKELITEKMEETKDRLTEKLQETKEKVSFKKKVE

Compound: CC[C@@H]1C(=O)N(C)c2cnc(Nc3ccc(C(=O)NC4CCN(C)CC4)cc3OC)nc2N1C1CCCC1
Assay: log2 fold change, soluble protein after heating vs DMSO (PISA); higher = thermal stabilisation; K562 cells, 10 uM, 30 min; active = over 0.2 and 3.5 SD of the protein, either way, in both replicates (recomputed)
Outline: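 For each measurement, 10 μM compound was applied for 30 min to K562 cells at 2×10^6 cells/mL. Aliquots were heated for 3 min across 48°C-58°C, pooled, and extracted in PBS with 0.5% NP-40 at 4°C; the supernatant after 21,000xg for 90 min was soluble protein. This was quantified by TMTpro 16plex LC-MS/MS with channel sums equalised, and thermal stability was reported relative to control samples from duplicates, on a log2 fold-change scale.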

**Q.** How did the log2 fold change turn out when FN3KRP (UniProt Q9HA64) was run?
**A.** inactive: 0.009

**Q.** How did the log2 fold change turn out when FCGR2A (UniProt P12318) was run?
**A.** inactive: 0.201

**Q.** FKRP (UniProt Q9H9S5) was tested. Which log2 fold change did it give?
**A.** inactive: 0.024

**Q.** How did the log2 fold change turn out when FDXR isoform 7 (UniProt P22570) was run?
**A.** inactive: 0.052

**Q.** Which log2 fold change does the source give for FIP1L1 (UniProt Q6UN15) here?
**A.** inactive: 0.001

**Q.** With FAM234A (UniProt Q9H0X4) as the target, how does the log2 fold change read?
**A.** inactive: -0.037

**Q.** How did the log2 fold change turn out when FLNA (UniProt P21333) was run?
**A.** inactive: -0.121

**Q.** FAM98A (UniProt Q8NCA5) was tested. Which log2 fold change did it give?
**A.** inactive: 0.17

**Q.** How did the log2 fold change turn out when FLT4 (UniProt P35916) was run?
**A.** inactive: 0.044

**Q.** With FBXL12 (UniProt Q9NXK8) as the target, how does the log2 fold change read?
**A.** inactive: -0.087

**Q.** Which log2 fold change does the source give for FKBPL (UniProt Q9UIM3) here?
**A.** inactive: -0.033

**Q.** With FDX1 (UniProt P10109) as the target, how does the log2 fold change read?
**A.** inactive: 0.013

**Q.** How did the log2 fold change turn out when FAM219A (UniProt Q8IW50) was run?
**A.** inactive: 0.052

**Q.** With FAM91A1 (UniProt Q658Y4) as the target, how does the log2 fold change read?
**A.** inactive: 0.062

**Q.** FBXO30 (UniProt Q8TB52) was tested. Which log2 fold change did it give?
**A.** inactive: -0.071

**Q.** FBXO7 (UniProt Q9Y3I1) was tested. Which log2 fold change did it give?
**A.** inactive: 0.079

**Q.** FAM76B (UniProt Q5HYJ3) was tested. Which log2 fold change did it give?
**A.** inactive: 0.119

**Q.** With FAM3A (UniProt P98173) as the target, how does the log2 fold change read?
**A.** inactive: 0.024

**Q.** FANCB (UniProt Q8NB91) was tested. Which log2 fold change did it give?
**A.** inactive: 0.014

**Q.** Which log2 fold change does the source give for FECH isoform 2 (UniProt P22830) here?
**A.** inactive: 0.399

**Q.** For FHL3 (UniProt Q13643), which log2 fold change is on record?
**A.** inactive: 0.004

**Q.** Which log2 fold change does the source give for FKBP9 (UniProt O95302) here?
**A.** inactive: 0.025

**Q.** FAM49B (UniProt Q9NUQ9) was tested. Which log2 fold change did it give?
**A.** inactive: 0.003

**Q.** With FASTKD2 (UniProt Q9NYY8) as the target, how does the log2 fold change read?
**A.** inactive: -0.037

**Q.** How did the log2 fold change turn out when FGF13 isoform 3 (UniProt Q92913) was run?
**A.** inactive: 0.02

**Q.** How did the log2 fold change turn out when FERMT3 (UniProt Q86UX7) was run?
**A.** inactive: -0.07

**Q.** How did the log2 fold change turn out when FBXO6 (UniProt Q9NRD1) was run?
**A.** active: 0.683

**Q.** With FBL (UniProt P22087) as the target, how does the log2 fold change read?
**A.** inactive: 0.283

**Q.** For FNBP4 isoform 2 (UniProt Q8N3X1), which log2 fold change is on record?
**A.** inactive: 0.052

**Q.** Which log2 fold change does the source give for FAR1 (UniProt Q8WVX9) here?
**A.** inactive: -0.035

**Q.** Which log2 fold change does the source give for FBH1 isoform 2 (UniProt Q8NFZ0) here?
**A.** inactive: 0.009

**Q.** How did the log2 fold change turn out when FARS2 (UniProt O95363) was run?
**A.** inactive: 0.01

**Q.** For FN1 isoform 1 (UniProt P02751), which log2 fold change is on record?
**A.** inactive: -0.02

**Q.** FKBP4 (UniProt Q02790) was tested. Which log2 fold change did it give?
**A.** inactive: -0.066

**Q.** Which log2 fold change does the source give for FKBP5 (UniProt Q13451) here?
**A.** inactive: -0.101

**Q.** FAT3 isoform 1 (UniProt Q8TDW7) was tested. Which log2 fold change did it give?
**A.** inactive: -0.044

**Q.** How did the log2 fold change turn out when FAM210A (UniProt Q96ND0) was run?
**A.** inactive: 0.027

**Q.** FIS1 (UniProt Q9Y3D6) was tested. Which log2 fold change did it give?
**A.** inactive: 0.005

**Q.** How did the log2 fold change turn out when FBXW9 (UniProt Q5XUX1) was run?
**A.** inactive: -0.049
